PubChem BioAssay AID720505 | Drosophila RNAi Screening Center | 2013
In all, the deposit lists about 20,000 reagents; shown is an unselected part of those that have a named target and a result. Of all reagents, about 2,100 (10%) were called active. 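Raw plate signals without normalisation; calls rest on control-based scores that were not deposited; replicate 2 separates called from uncalled poorly.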 Unmarked entries are inactive. Reagents against one gene are numbered here. The record does not give: the amount of reagent, the time to read-out.

Aim: 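Fly regulators or components of the CRAC channel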 (primary screen)
Cells: Drosophila S2R+ cells
Reagents: long dsRNA against Drosophila genes
Conditions: thapsigargin (2 µM) in calcium-free buffer to empty internal stores, then 2 mM calcium added back
Measured: 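Fluo-4 signal in 384-well plates read on a FLIPR after thapsigargin (2 µM, calcium-free) store depletion and 2 mM calcium add-back; unnormalised mean endpoint per well; screen run twice, selected wells retested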
Scale: calcium signal: higher = more calcium entry after store depletion
Call rule: 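About 1500 genes called as lowering calcium entry, by varying amounts, judged against per-plate control wells with STIM1 as positive and Rho1 as negative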
Meaning of the calls: active = called as lowering calcium entry; inactive = not called

target | dsRNA no. | calcium signal, replicate 1 | calcium signal, replicate 2
mRpL18 | 1 | 57.8 (active) | 201
CG15155 | 1 | 109 | 134
CCHa1 | 1 | 111 | 116
CG9411 | 1 | 123 | 106
Or22b | 1 | 158 | 161
CG12446 | 1 | 125 | 98.7
Vps45 | 1 | 167 | 141
ara | 1 | 62.3 | 89.4
ara | 2 | 114 | 117
btl | 1 | 67.4 | 82.4
Pgls | 1 | 62.5 (active) | 115
atms | 1 | 60.4 (active) | 105
CR43105 | 1 | 126 | 125
flr | 1 | 97.8 | 81.5

Reformatted: 4 of the entries above.
target	dsRNA no.	calcium signal, replicate 1	calcium signal, replicate 2
ara	2	114	117
btl	1	67.4	82.4
Pgls	1	62.5 (active)	115
atms	1	60.4 (active)	105

The listing continues:
target | dsRNA no. | calcium signal, replicate 1 | calcium signal, replicate 2
SrpRalpha | 1 | 118 | 64.9
C15 | 1 | 185 | 91.3
tej | 1 | 124 | 145
Mps1 | 1 | 172 | 261
Osi18 | 1 | 162 | 191
CG10333 | 1 | 101 | 105
CG32576 | 1 | 75.2 | 96
ppk | 1 | 93.5 | 107
CG7766 | 1 | 164 | 160
CG6244 | 1 | 183 | 237
CG34217 | 1 | 127 | 155
CG8420 | 1 | 76 (active) | 146
CG11068 | 1 | 64 (active) | 148
CG10029 | 1 | 97.3 | 122
Dhfr | 1 | 124 | 143
fws | 1 | 85.3 | 111
fax | 1 | 115 | 94.1
vret | 1 | 165 | 227
Ist1 | 1 | 84.9 | 151
CG15676 | 1 | 207 | 129
